From PubChem BioAssay record AID1159506 (NCATS, 2015).

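Genome-wide siRNA knockdown in TC32 Ewing sarcoma cells, comparing luciferase light from an NR0B1-promoter reporter with a CMV-promoter reporter 48 hours after transfection.
Each siRNA was applied at 20 nM.
A z-score of the log NR0B1-over-CMV signal, less the median of siRNAs with the same seed; more negative means a stronger specific loss of the NR0B1 reporter.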

The strongest results of the screen are mostly left out here.
Sequences are the guide (antisense) strand, without overhang.

strand | gene | seed-corrected z-score
AUUGGGACGAGUGAGCUCU | CXCL16 | 1.138
UCUUCGGAAACAGAACUCC | HP1BP3 | -0.04422
UAUCCAUCCAUACAGUAGC | SUSD1 | -1.157
AACCUGUAAAAAUCGAUCC | CCNB2 | 0.2378
UCUGUUAGCUCUUUAUUCG | UBXN2B | -0.0886
UGCCGUAACAGAUUGAUCA | SMIM14 | -0.3978
UCUAGGGCUAUGCCGUUCC | SIGLEC5 | -0.4821
UGAAUGUCUCAUCUGGUUC | SPSB1 | -0.3039
UCUCCAACAAUCGGAAGCC | LINC01625 | 0.283
UCACUAACCAUAUCAUCUG | UNC13C | 0.000438
UGACAUUGAAGAAUGGGCG | SIAH1 | 0.4992
UAUCGGGAAAAGACGUCUA | S100P | 0.2088
AUAUGUUUGACGAGUAACC | ANGPT1 | -0.8386
UCAGGAUGGAGAACACCGC | MRGPRF | -0.1936
UCUGAGAUAAGGAACUUAG | PXMP4 | 0.04945
UAACUGAUGAAUGCAUUGU | MFAP5 | 0.1684
UAAGCGCUAGGUUCUCCCG | CCDC85B | 0.4032
UCUGAUGUGACCUUACUGU | FLOT2 | -0.8288
AUUGUCGUGAGAGAUGAGC | HOXC9 | -0.9349
AUCCGUAACAGCAUCCGCC | CXCR2 | 0.115
UAGAAAUACCUGUUAUUGG | LOC285074 | 0.8549
AUGAUUUUAUUCAUAAUGC | FLJ16423 | 0.7943
UGAUUGAUCAAUGCCGGUC | MYO1B | -0.5621
UUGCCGAACUCAUAGGUGC | SLC25A39 | -0.38
UGAAUAAUACUGUUGCUGC | SLAIN1 | 0.6872
UGAGUUGCAAGUGAAAAUC | PDP2 | 0.2473
UCUGCUGUAAUCAUGAUCA | KRT27 | -0.1303
UCGUCUGAAACAAAUCGGC | FHIT | 0.518
UACUUGAUGCAGUCGUCCC | SLC27A1 | -0.4205
UAAGAGCCCGAGAUGACAG | OR2T27 | -0.4326
UAAUCACCAAGACGGAAUG | RANBP6 | -0.313
ACAUCAACAAUCGUUAUUG | CCDC47 | -0.1544
UGACAGACCAGGGAAGAUU | LINC00174 | -0.2662
UGCUGUUUCCGUUUGCGCC | SRPK3 | 0.4835
UUCUGUUACGUCCUUGUGG | CREB3L4 | -0.1711
UUGACUUUUAGGUUUUUAC | AVPR1B | -0.1166
UCAAAUUCCAGGAAUUGAC | HLA-B | -0.7718
UAGAUUUUGUAUAAUGGUG | RPS18P10 | 0.5386
UCUGUUCAAGCUCUCGUCC | BMPR1B | -0.5209
UCACUUUUGGCACUUCUGC | FAM159A | -1.249
UUCACUUGAAUGAUGUUGU | PRKAB1 | -0.01488
AACGCAACAAUAAAUUACA | FZD9 | 0.1275
UUUGGUUUAGCCUCCUCUG | SAMD15 | -0.3118
UAUUGCAGCUCUGAGACCC | FAM47DP | -0.7045
UCACUAUCACUUAAAUUCC | CPEB2 | 0.8165
UUCUGGAGAAAACUGUCCC | PLEKHA7 | -0.3933
UAAACGAUGAAGCCCAUCA | C14orf2 | -0.6647
UAGGUAUGAGCUGCAGUCC | OTX1 | -0.06725
UUCGGAACAGGUAAGCACC | AXIN2 | 0.8423
UAAGUAAGGAGUUCGUUGG | SCP2 | -0.2894
UGUAAGUACAGCAACGGUC | EPM2A | 0.9455
UUCCACAUCAGAGAUGUGC | CARHSP1 | 0.9166
UUAGUUAAGAUGAUGCUGG | H3F3B | 0.643
UCGAAAACAAUCCUAUUGC | ABCC2 | 1.089
AAGCAGUUCACCGAUAUAC | SLC27A2 | -0.4823
UUAGGUGCCUCAUUCGACC | RPL37 | -1.672
UCCUCUAUGACUGACAGCA | CDK2AP2 | 0.7407
UUGGGAAGUACAGUACAUG | HSD11B2 | -1.219
UAGAGUGUACUUGCGGUCC | TAF10 | 0.1913
UUCACACUGAUGAUCAUGU | FABP4 | 0.604
UCCUUUAAUCCUCUUCUCG | HAND1 | -0.6073
UCGAGUUUCACUAUUGAAC | PTPN22 | 0.2804
UUUCCGCAAAGUAUAGACG | MAST2 | -0.166
UCAUUGAACAGGAUCUCGC | GGTLC2 | 0.2167
UUUGUGAUUGCUGCAGUUC | HYAL1 | 0.2253
UGCUUUUCUACAAUAUUAC | SERPINB7 | 1.397
AUUAUGAUGAGCCCGUUUG | MAX | 0.02787
UUCUUGAUGACUCGAAUCC | CPXM1 | -0.549
UUCAAUCCAUUCUUCGUGG | TRIO | 1.195
UUAGAUUUGUUUGUUAGAG | TNFSF18 | -0.5403
UGAAAGUUUCCUGCUGUCU | PPIAP8 | -0.02528
UAAGUUAACAACAGGUUCU | LSMEM2 | 0.6376
UGUAGCUUUAUAGUCACUG | COMMD2 | 0.02901
UAUACGGAAAUUGCAAGGC | KDM1B | 0.7991
UUCGAGUCAAGAAACAUAG | ACAP2 | 0.5713
UUGCUUCCUCUUAAAAUUG | PRODH2 | 0.1172
UCUGUUACGAUUUGGACCC | MYEF2 | -0.4685

For reference, 5 entries once more:

* UUCGGAACAGGUAAGCACC against AXIN2 | seed-corrected z-score 0.8423
* UAAGAGCCCGAGAUGACAG against OR2T27 | seed-corrected z-score -0.4326
* UAUACGGAAAUUGCAAGGC against KDM1B | seed-corrected z-score 0.7991
* UCAGGAUGGAGAACACCGC against MRGPRF | seed-corrected z-score -0.1936
* UUAGGUGCCUCAUUCGACC against RPL37 | seed-corrected z-score -1.672